The experiment deals with T1, RAR‐related orphan receptor B (RORB), endogenous (human (endogenous in SH-SY5Y, SK-N-AS, SK-N-BE(2), IMR-32)) (UniProt Q92753).
T1 sequence: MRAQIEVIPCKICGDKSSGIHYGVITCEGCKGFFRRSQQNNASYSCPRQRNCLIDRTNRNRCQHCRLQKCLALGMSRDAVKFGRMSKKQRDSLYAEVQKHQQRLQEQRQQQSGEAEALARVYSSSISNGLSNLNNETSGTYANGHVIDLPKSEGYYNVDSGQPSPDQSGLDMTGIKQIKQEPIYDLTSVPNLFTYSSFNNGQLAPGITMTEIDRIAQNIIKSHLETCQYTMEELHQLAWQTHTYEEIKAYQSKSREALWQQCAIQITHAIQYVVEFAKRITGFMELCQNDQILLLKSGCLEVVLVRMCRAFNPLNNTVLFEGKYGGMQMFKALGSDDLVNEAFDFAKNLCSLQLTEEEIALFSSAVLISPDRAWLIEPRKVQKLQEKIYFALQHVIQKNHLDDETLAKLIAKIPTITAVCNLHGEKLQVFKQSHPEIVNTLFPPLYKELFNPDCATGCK
The experiment can be described thus: affinity purification with mass spectrometry; co-IP with RORB specific antibody from lysates of SH-SY5Y and SK-N-AS cells; gel bands analysed by LC-MS/MS.

Amino acid sequences for entries named in this document (tags omitted).
UniProt P98175: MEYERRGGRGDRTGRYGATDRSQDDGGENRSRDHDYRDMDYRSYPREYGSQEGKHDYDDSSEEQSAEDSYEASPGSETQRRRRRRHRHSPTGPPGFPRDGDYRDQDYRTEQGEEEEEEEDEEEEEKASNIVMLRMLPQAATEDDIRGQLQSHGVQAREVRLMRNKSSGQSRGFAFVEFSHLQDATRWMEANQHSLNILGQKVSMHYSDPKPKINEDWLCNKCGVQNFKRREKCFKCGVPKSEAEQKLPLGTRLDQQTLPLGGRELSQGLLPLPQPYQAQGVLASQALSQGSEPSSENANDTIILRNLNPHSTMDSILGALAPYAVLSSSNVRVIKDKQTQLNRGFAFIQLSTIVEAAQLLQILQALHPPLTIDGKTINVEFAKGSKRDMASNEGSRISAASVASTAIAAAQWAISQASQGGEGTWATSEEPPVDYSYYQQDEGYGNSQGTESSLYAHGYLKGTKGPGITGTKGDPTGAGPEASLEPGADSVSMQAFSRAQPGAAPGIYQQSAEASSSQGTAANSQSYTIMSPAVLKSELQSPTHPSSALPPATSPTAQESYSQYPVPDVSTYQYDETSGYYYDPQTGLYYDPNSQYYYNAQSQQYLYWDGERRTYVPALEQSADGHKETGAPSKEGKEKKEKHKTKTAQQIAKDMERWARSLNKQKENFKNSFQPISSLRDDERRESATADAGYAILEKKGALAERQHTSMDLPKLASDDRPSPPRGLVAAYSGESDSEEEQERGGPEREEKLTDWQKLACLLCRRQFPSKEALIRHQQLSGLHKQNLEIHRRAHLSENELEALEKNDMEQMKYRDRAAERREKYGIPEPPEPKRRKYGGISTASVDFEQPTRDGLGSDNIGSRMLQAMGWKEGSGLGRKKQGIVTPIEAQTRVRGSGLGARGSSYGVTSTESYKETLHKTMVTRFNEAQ

Results are given in words; binding and its absence hold for the method and conditions named. In cells and extracts the contact can be indirect. These calls come from enrichment with a bait or labelling near it, and not all partners need be listed.

Regarding “RNA binding motif protein 10 (RBM10), endogenous (from UniProt P98175 1-930)”, the binding result was “binds”.

The values are drawn from publication PMC12667445, “Targeting RBM10‐Repressed RORB Activity in Liquid Condensates Inhibits Lysosomal Biogenesis and Neuroblastoma Progression via Affecting NF‐κB Signaling” (Advanced Science, 2025).
